Experimental data taken from PubChem BioAssay AID1347423 (Functional Genomics Laboratory (NCATS/FGL), 2020).
Hit rate of the full screen: of about 52,000 sequences, about 210 (0.4%) were called active.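 How the source made its calls: active means gene whose silencing raises cell survival under the drug, median off-target-corrected z-score across its silencing RNAs 2 or more; inactive means the rest.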 This is one part of the list.

Assay: Resistance to Poly (ADP-Ribose) Polymerase inhibitor: Gene Identification via Genome-wide siRNA Screen
Conditions: mouse BRCA2 R2336H ES cells, olaparib, CellTiter-Glo viability; active compounds read high
Procedure, shortened: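 Mouse BRCA2 R2336H ES cells were reverse-transfected with siRNA (20 nM final), treated at 48 h with 500 nM olaparib, and read by CellTiter-Glo after 72 h. Scores: MAD-based z per siRNA, median per gene, seed off-target correction.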
With CCUCGGAUAACGAAGCUAATT against Hoxc10 the z-score was inactive: -0.368.
In the case of GCAAUUACCUGGUUUAAUGTT against Ptdsr, the z-score was inactive: 0.961.
With “GGGCCAUGCUAACCCUUAATT against 2200002K05Rik” the z-score was inactive: -3.08.
With “GGAAAGGGUCUGUUUUACUTT against 2810002I04Rik” the z-score was inactive: 1.45.
In the case of GGCAGCUGGAAAGACAAAATT against Snca, the z-score was inactive: 0.0268.
With GGAUGCCAAUUACUUUCUATT against Chst9 the z-score was inactive: 0.366.
With GCAUCACAAAUAUGCUUCUTT against Tas2r120 the z-score was inactive: -0.535.
With GGAAGGAGAAAAUGGAACUTT against Il12rb2 the z-score was inactive: -2.49.
For GGGUUUUCUUACAAAGAACTT against Hoxb2, the z-score was inactive: 0.803.
In the case of GGCUAAAGAAUGUUAUCAGTT against Ttc12, the z-score was inactive: -0.0715.
For GGAACAUGAAGUGGAAAAATT against Vps33a, the z-score was inactive: -0.369.
In the case of GGAAUAAGGAGCUGAAGAATT against Olfr63, the z-score was inactive: -2.3.
For GGACUACCAAUACGAACUGTT against Il23a, the z-score was inactive: 0.547.
With GGAAAGGACAAGAAAAUUUTT against Strn the z-score was inactive: 1.08.
With GGGCAUGCAUAGCUACUAUTT against Tmprss6 the z-score was inactive: -1.38.
In the case of GGAGAUCACCUACGACAUGTT against Lgals8, the z-score was inactive: -1.23.
For “GGUCAAGUCACUGCUUGAATT against 2010005H15Rik”, the z-score was inactive: -0.396.
For GGAAGAAAGCAGAACAAGGTT against Armcx3, the z-score was inactive: 0.35.
For GGUUCCUAGAUAAGAUUCGTT against Itm2b, the z-score was inactive: 1.58.
In the case of GCGGUGGUUAUCCUAGAAATT against Hivep2, the z-score was inactive: -0.0386.
With “GGAGAAAGGAACUGAAAGUTT against D430026P16Rik” the z-score was inactive: -0.591.
In the case of “GGCUCUACCACAAGAAGGUTT against 2310020H20Rik”, the z-score was inactive: -1.88.
With GCUGCUAGCAAAAAGAACUTT against Yaf2 the z-score was inactive: 0.285.
For GGAUCAGAACACUUUGGCATT against Leng5, the z-score was inactive: -0.908.
In the case of GGUGAGGAUUUAUUUGAAGTT against Fkbp5, the z-score was inactive: 0.0901.
With “GGGCUGGGUCUUCAUAAUUTT against 6330549D23Rik” the z-score was inactive: -0.191.
For “GGAACCUAACCUAAGUAGUTT against B530045E10Rik”, the z-score was inactive: 0.516.
In the case of “GGAUGACUACAAAUGCAAATT against E230015B07Rik”, the z-score was inactive: 0.67.
In the case of “GGGACUUUAGAUGAAAAAATT against 5430404L10Rik”, the z-score was inactive: -0.058.
With “GGAGCUGAUAGGACUGAUGTT against 1110031B06Rik” the z-score was inactive: 0.0234.
For GGCCGUACCUUUAACUGGATT against Tex101, the z-score was inactive: -1.28.
In the case of CCUGUGUAUUCCUAAAUUGTT against Wdr41, the z-score was inactive: 0.988.
With “CCGGAGGUUUAGAAGAGGATT against 4930534B04Rik” the z-score was inactive: 0.244.
In the case of GGAAGUGAAGAGAUCCUUATT against Olfr148, the z-score was inactive: 1.22.
In the case of “GCGUGAGUCCCUAUAUGAATT against 2300008B03Rik”, the z-score was inactive: 1.28.
In the case of GGAAAAUCACUUCAUUCACTT against Ltk, the z-score was inactive: 0.264.
For “GGUUUAAGCUUUUUGUGGATT against D130079A08Rik”, the z-score was inactive: 0.808.
In the case of “GGAAGGAUUCUGGAAACAGTT against 2210409E12Rik”, the z-score was inactive: -0.14.
In the case of GCUCACAAGGUACCUAUUATT against Frmd3, the z-score was inactive: -1.6.
With GGACUUAAGGCCCUUUUUGTT against Elovl3 the z-score was inactive: -0.378.
In the case of “GGGAAGAGGAUAGGAUUCGTT against 2310079N02Rik”, the z-score was inactive: 2.88.
With “GGACUUCACUUUUCUAUGATT against 9630015D15Rik” the z-score was inactive: 0.243.
In the case of GGAGAUGGAUGAUAUGGAGTT against Ifi30, the z-score was inactive: 1.29.
For CGUUGUUUAUUCCAAAGAGTT against Runx1, the z-score was inactive: 0.209.
For GCCUUUUGACGCAAAAACATT against Myh8, the z-score was inactive: 1.39.
For GGAUCAACAGUCAAUUGUGTT against Tax1bp1, the z-score was inactive: -1.81.
With GGAAAGAAGAAACAUUCCUTT against Socs5 the z-score was inactive: 0.2.
With “GAAUAUUGCUCAGUGCAAGTT against 1110021N19Rik” the z-score was inactive: 0.456.
In the case of “GGGAGUUAACAAAAACAUATT against 6030405P05Rik”, the z-score was inactive: 1.25.
In the case of GGGUUUUUGAUGAUGAUUCTT against Htatsf1, the z-score was inactive: -2.02.
For CGGGAUCUUCACUCUCUGATT against Timd4, the z-score was inactive: -1.62.
In the case of GGAUAAAAGCAUUUGAGUCTT against Acp1, the z-score was inactive: 0.454.
With GGAAGGUAAAUGUCUGCUCTT against Selk the z-score was inactive: 0.809.
For GGGAAAGGAUAAAGAUUUUTT against Hmgcs1, the z-score was inactive: -0.388.
In the case of GGAGAAAGCCUUCCAAUUUTT against Kel, the z-score was inactive: 0.517.
For GCUCCCUACUUUACAUAAATT against Vmd2l3, the z-score was inactive: -0.737.
With GCUGUUGGUCUGAUAGCUUTT against Hadhb the z-score was inactive: 0.258.
With CCAGCCAAGACUAAGAAACTT against Mbd1 the z-score was inactive: -0.579.
With GGGUAUUGAGUUCAAAAUUTT against Dld the z-score was inactive: -1.38.
In the case of AGAAUCUUUAAAGGAAGUCTT against Olfr325, the z-score was inactive: -0.796.
For CGAUAGACCAAAUUUUAUGTT against Trim37, the z-score was inactive: 1.05.
For “GGACAAGAAACAGCUGUCATT against D5Ertd593e”, the z-score was inactive: -1.88.
In the case of “GGAGAAAUACUCAGAAAUGTT against 4933405K18Rik”, the z-score was inactive: 0.236.
In the case of GGAAUAUUAUCUGAUCUGUTT against Abca4, the z-score was inactive: -0.169.
With GGAGACAAUAUGGGACAUGTT against Ddb2 the z-score was inactive: -0.235.
With “GCUGGUUGUAGUAAAACAGTT against 2810474O19Rik” the z-score was inactive: -0.745.
With “GCUGCUCAAGAUCAUUUGATT against 1700010C24Rik” the z-score was inactive: -0.205.
In the case of GCGAGUUCGAUUGCUUCUCTT against Cited4, the z-score was inactive: -0.534.
In the case of GGAAGGAACUCAAGAAGACTT against Ifrd1, the z-score was inactive: 0.283.
With “GGUGAUUCCAUUACCUAGUTT against E430028B21Rik” the z-score was inactive: 0.655.
For GGACUUAGUGUGGAAAAGATT against Ddah2, the z-score was inactive: -0.285.
With “GGAAAGCUGGUGAUGCUCGTT against A430107D22Rik” the z-score was inactive: 0.391.
In the case of GGGCCUUCACAAUGUCCUUTT against Brca1, the z-score was inactive: -1.64.
In the case of CGUGAUGAAUGAGAAUAACTT against Maea, the z-score was inactive: 0.329.
With GCUGUAUUAUGUAGCUUCUTT against Ddx27 the z-score was inactive: 0.203.
With GGUCUCUUUUUGUUUCCUUTT against Ctf1 the z-score was inactive: 0.628.
With GCUGCCAACGAAGAUGAGCTT against Casc1 the z-score was inactive: 0.464.
For GGUUACCUAGAAGUGGACUTT against Igsf6, the z-score was inactive: -0.891.
For GGUGACUCCAAGAAUGUGGTT against Wfdc1, the z-score was inactive: 1.02.
For “GGAUGCCUUUGAUGAUGUGTT against 5430425K04Rik”, the z-score was inactive: -2.18.
In the case of “GGAGGAGAAAAAUUGUAUUTT against A530053G22Rik”, the z-score was inactive: -0.318.
In the case of GGAUAAGACUUUAGCUUUUTT against Fbxo45, the z-score was inactive: -0.275.
With ACAAAGUCUGUUCAAGAUCTT against Oc90 the z-score was inactive: -1.31.
In the case of GGAGCAGUUACAGGAAAUCTT against Cdr2, the z-score was inactive: -2.47.
In the case of CGGGUUCCCAGGAAUUAAGTT against Col4a6, the z-score was inactive: -0.397.
For GGGAAGUUCAUUUGUUAAATT against Gosr1, the z-score was inactive: 1.25.
In the case of CCUACAGGGAAUACGUGUATT against Ttc17, the z-score was inactive: 0.556.
With GGGAAAAUAACAAAAAGAGTT against Hoxc6 the z-score was inactive: -0.224.
For GAUGAUGAACGACUGGUUCTT against Olfr285, the z-score was inactive: -0.333.
In the case of GAAUGAGUUCUGCCCAGUCTT against Lhb, the z-score was inactive: 0.195.
With “GGACAUUGAUGUCAUAGAATT against 2310067E08Rik” the z-score was inactive: 0.548.
For GGAGAAAUAUGAUGUUCUUTT against Mppe1, the z-score was inactive: 0.684.
For GGACGAAAUAACAGGCUAATT against Ocil, the z-score was inactive: -1.94.
For GGUGGCUCAGAAAUCCUAUTT against Rbpsuhl, the z-score was inactive: 1.91.
In the case of GCUCAGUGAUAAUUAAACGTT against Nudt10, the z-score was inactive: 0.478.
In the case of GGGCAUCAUGCCUCAUGAATT against AI839550, the z-score was inactive: 2.08.
In the case of CCUGGCAGUAAAAGAUUGCTT against Ndst3, the z-score was inactive: 0.0386.
With “CGUGUUGGAGUACAAUGAGTT against 1190002L16Rik” the z-score was inactive: -1.5.
For GGACAGCUUGUAAAUUGCCTT against bM64F17.1, the z-score was inactive: -0.124.
For GCACUAAAUCCUUUGAUAUTT against Olfr307, the z-score was inactive: 0.472.
For GGAGUUCAAGACGGAGAAGTT against Gpr27, the z-score was inactive: 2.11.
With CGGAAUCAAACUUUUCGGGTT against Rbm7 the z-score was inactive: 0.161.
In the case of GGCCAGGAUUAUAAGUUUUTT against AI504432, the z-score was inactive: 0.163.
